# The campaign covered roughly 340,000 compounds. About 170 (0.05%) were called active. The inconclusive results got no clear call from the source; some entries with a clear call stand among them for comparison. The call rests on the fitted dose curve; in most records, active means well fitted inhibition curve with a large enough effect in the signal ratio, with a control signal flat (not every such curve was filed as active); inconclusive means small, poorly fitted or top-dose-only effect, or effect the other way, or a change in a side signal; inactive means flat fitted curve, though single readings scatter; the % refers to the signal ratio. Potencies of inconclusive entries are doubtful fits and often do not repeat.
# Assay: qHTS Assay to Find Inhibitors of Chronic Active B-Cell Receptor Signaling;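 on activity change, negative = inhibition: plate controls were basal doxycycline-induced cells for no effect and cells given 10 µM MG132 for full effect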
# Details: ABC-DLBCL IkBa-CBG/CBR reporter, luminescence ratio (green luciferase fused to IkBa over red control in TMD8 lymphoma cells), 4 h; activity change, negative = inhibition: at 46.1 µM (top of the series)
# In short: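 TMD8 human ABC-DLBCL cells with doxycycline-inducible IκBα–green luciferase fusion and unfused red luciferase, in 0.5% FBS medium; compounds up to 46 uM, 4 h at 37C. Green/red luminescence ratio, filter-overlap corrected, fitted to concentration-response curves.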
# Potency means the concentration at half of the fitted maximal effect.
SMILES,"activity change, negative = inhibition",Potency
COc1cccc(-c2nn(C)c3sc(C(=O)NCc4ccc5c(c4)OCO5)cc23)c1,inconclusive: 0.616%,
O=C(c1cc(COc2cccc(C(F)(F)F)c2)on1)N1CCC(c2ccncc2)CC1,inconclusive: -12.4%,
CCCC(=O)c1c(C)c2ccccc2n1C,inconclusive: 2.12%,
Cc1cc2nc3ccc(=[N+](C)C)cc-3sc2cc1N,,"inconclusive: 35.5 µM [falling, single point]"
CCCCCCc1ccc(N2C[C@H](CCCCC)[C@@H](CC(=O)NCc3ccc(OC)cc3)C2=O)cc1,inactive: -7.44%,
Cc1cccc(CC2CC(=O)N(c3ccccc3)C2=O)c1 (centres undefined),inconclusive: 14.8%,
COc1ccccc1-[n+]1c(C)cc(/C=C2\Sc3ccccc3N2C)cc1C,inconclusive: -19.6%,
O=C(NC(O)C(=O)c1ccccc1)c1cccs1 (centres undefined),inconclusive: -2.42%,
CCc1ccccc1NC(=O)c1cc(S(=O)(=O)NCCc2ccc(OC)c(OC)c2)ccc1F,inconclusive: 1.47%,
CCOC(=O)c1ccccc1Nc1cn(C(C)=O)c2ccccc12,,"inconclusive: 3.26 µM [falling, partial curve, poor fit]"
O=C1CN(C(=O)c2c(F)cccc2F)C(c2ccc(F)cc2)c2cc(Br)ccc2N1 (centres undefined),inconclusive: 0.596%,
COC(=O)c1cccc(NC(=O)Cc2coc3cc(OC)ccc23)c1,inconclusive: -9.54%,
O=C(CCCCCn1c(SCC(=O)c2ccccc2)nc2ccccc2c1=O)NCc1ccco1,inconclusive: 0.578%,
Cc1nnc(NC(=O)c2nc(S(=O)(=O)Cc3ccccc3)ncc2Cl)s1,inconclusive: 9.97%,
Cc1nc(Nc2ccccc2)sc1C(=O)c1ccccc1,inconclusive: -1.31%,
Cc1ccc(OCC(=O)Nc2ccc3c(c2)nc(CCN2CCOCC2)n3C)cc1,inconclusive: 0.718%,
COc1ccc(C(=O)NCC(c2ccco2)N2CCc3ccccc32)cc1 (centres undefined),,"inconclusive: 23.1 µM [falling, single point]"
N#C/C(=C\c1ccc(-c2cccc([N+](=O)[O-])c2)o1)C(=O)NCCN1CCOCC1,inconclusive: 4.57%,
CCCCS(=O)(=O)Nc1ccc2cn[nH]c2c1,inconclusive: -9.95%,
COCC(=O)NC(c1ccccc1)c1ccccc1,inconclusive: 6.96%,
CCCNC(=O)c1nn2cc(Br)cnc2c1Cl,inconclusive: 0.514%,
Cc1coc(C)c1C(=O)CC1(O)C(=O)N(CCc2ccccc2)c2ccccc21 (centres undefined),inconclusive: 5.64%,
COc1cccc(CNC(=O)CN(C)S(=O)(=O)c2ccc3c(c2)CC(C)N3C(C)=O)c1 (centres undefined),inconclusive: -8.72%,
CCOC(=O)N1CCN(C(=O)CNC(=O)c2ccc(Cl)cc2)CC1,inconclusive: 9.1%,
CC(=O)N1CCN=C1SCc1cccc(C(F)(F)F)c1,inconclusive: -0.223%,
O=C(Nc1ccc(Br)cc1)N1CCCC(O)C1 (centres undefined),inconclusive: -34.5%,
COc1ccc(N2CCN(C(=O)CCc3ccc(S(=O)(=O)NC(C)C)cc3)CC2)cc1,,"inconclusive: 29.1 µM [falling, partial curve, poor fit]"

SMILES,"activity change, negative = inhibition",Potency
Cc1cc(C(=O)N2CC=C(c3ccccc3)CC2)c2ccccc2n1,,"inconclusive: 23.1 µM [falling, single point]"
CN1CCN(C(=O)c2cc3nc(-c4ccccc4)cc(-c4ccccc4)n3n2)CC1,inconclusive: 16.2%,
Cc1c(OCC(=O)N2CCC(C(=O)O)CC2)ccc2c3c(c(=O)oc12)CCCC3,,"inconclusive: 35.5 µM [falling, single point]"
CO/N=C/NC(=O)NOCc1ncc(C(F)(F)F)cc1Cl,inconclusive: 8.57%,
Cn1cccc1Cc1nnc(SCC(=O)Nc2nccs2)n1C,inconclusive: -10.3%,
O=C(O)c1ccc2c(c1)C(=O)/C(=C/c1ccccc1)C2=O,,"inconclusive: 4.61 µM [falling, full curve]"
CCN(CC)CCN1C(=O)C(=O)/C(=C(/O)c2ccncc2)C1c1ccccc1 (centres undefined),inconclusive: 8.04%,
Cc1cc(C)cc(NC(=O)CCCN2C(=O)C(c3ccccc3)Oc3cccnc32)c1 (centres undefined),inconclusive: -0.442%,
Cc1nn(C)c(C)c1NC(=O)CCl,inactive: -1.85%,
Clc1ccccc1-c1ncnc2ccc(Br)cc12,inactive: -11.4%,
O=C(CCc1ccccc1Cl)Nc1cc2c(cc1C(=O)O)OCCCO2,inconclusive: 9.07%,
O=C(Nc1cccc(N2C(=O)C=CC2=O)c1)c1cccs1,,"inconclusive: 29.1 µM [rising, single point]"
Cc1nc(SCc2nc3c([N+](=O)[O-])cccc3[nH]2)c2oc3ccccc3c2n1,inactive: 0.343%,
COC(=O)C1=C(C)NC(C)=C(C(=O)OC)C1c1ccc(OC(=O)c2oc3ccccc3c2C)c(OC)c1,inactive: -10.6%,
COc1ccccc1/C=C/C=N/n1c(-c2ccncc2)n[nH]c1=S,inconclusive: -19.9%,
COc1cc(CNC2CCCC2)c(Br)cc1OC1CCCC1,inconclusive: 2.97%,
O=C(Nn1c(O)c(C=C2N=c3ccccc3=N2)sc1=S)c1ccccc1Cl,,"inconclusive: 10.3 µM [falling, partial curve, poor fit]"
Cc1cc(N2CCOCC2)nc2ccc(NC(=S)N3CCCCC3C)cc12 (centres undefined),inconclusive: -15.7%,
N#C/C(=C\c1ccc(N2CCOCC2)o1)c1ccccc1,inactive: 4.92%,
CC(=N)c1c(O)c2ccccc2oc1=O,,"inconclusive: 11.2 µM [falling, partial curve]"
CCOC(=O)CN1C(=O)C(Sc2n[nH]c(-c3ccc(C)cc3)n2)CCc2ccccc21 (centres undefined),inconclusive: 6.11%,
CCOC(=O)[C@@H]1[C@H]2COc3ccccc3[C@H]2N2C(=O)N(c3cccc(Cl)c3)C(=O)[C@]12C,inactive: -2.18%,
C=CCN=c1sc(C(=O)OC)cc(=O)n1CC=C,inconclusive: 2.23%,
CCOc1ccc(C(=O)Nc2ccc3c(c2)OCCO3)cc1[N+](=O)[O-],,"inconclusive: 4.47 µM [falling, full curve, poor fit]"
CCOC(=O)Cn1nnc(-c2ccc([N+](=O)[O-])cc2)n1,,"inconclusive: 7.08 µM [rising, full curve, poor fit]"
Cc1ccc2ccc(C(Nc3ccccn3)c3ccccc3)c(O)c2n1 (centres undefined),,"inconclusive: 35.5 µM [falling, single point]"
CC(=O)c1c(C)[nH]c(C(=O)Nc2nc(-c3ccc(Cl)cc3)cs2)c1C,inactive: -0.284%,

# No new results follow: three of the compounds above.
SMILES,"activity change, negative = inhibition",Potency
CCCCS(=O)(=O)Nc1ccc2cn[nH]c2c1,inconclusive: -9.95%,
COCC(=O)NC(c1ccccc1)c1ccccc1,inconclusive: 6.96%,
CCCNC(=O)c1nn2cc(Br)cnc2c1Cl,inconclusive: 0.514%,

# Further records

SMILES,"activity change, negative = inhibition",Potency
O=C(Nc1nnc(-c2ccccc2F)s1)Nc1ccccc1F,inconclusive: 2.01%,
CCOC(=O)CSc1nc2cc3c(cc2c(=O)n1CCCC(=O)NCc1ccc2c(c1)OCO2)OCO3,inactive: -16.6%,
COc1ccc(C(=O)COC(=O)CCCN=C2NS(=O)(=O)c3ccccc32)c(OC)c1,,"inconclusive: 16.4 µM [falling, single point]"
C[C@]12CC[C@H](O)C[C@@H]1CC[C@@H]1[C@@H]2CC[C@@]2(C)[C@H]1CCC(=O)[C@]21CCCO1,inactive: 1.11%,
O=C(OC(C(=O)Nc1ccc(Cl)c(C(F)(F)F)c1)c1ccccc1)C1=COCCO1 (centres undefined),inconclusive: -9.09%,
c1cc2c(cc1-n1cnnn1)OCO2,inactive: 3.12%,
COC(=O)c1ccccc1-c1ccc(/C=N/NC(=O)c2cc3ccccc3o2)o1,inactive: 8.91%,
Cc1ccc(S(=O)(=O)c2nc(-c3ccccc3Cl)oc2N2CCN(C)CC2)cc1,inconclusive: -6.76%,
CN(C(=O)CCNC(=O)Cn1cnc2ccccc2c1=O)c1ccccc1F,inactive: -2.11%,
C=CCc1c(C)nc2nc(SCC(=O)Nc3ccccc3CC)nn2c1C,inactive: -1.92%,
N/C(Cc1ccc([N+](=O)[O-])cc1)=N\OC(=O)C1CCCCC1,inconclusive: -14.2%,
O=C(NC1CCCCC1)NC1C2CC3CC(C2)CC1C3 (centres undefined),inactive: 1.03%,
COc1ccc(NCC(O)Cn2c(C)c(C)c3ccccc32)cc1 (centres undefined),,"inconclusive: 22.4 µM [falling, single point]"
Clc1cccc(CSc2nnc(-c3sccc3-n3cccc3)o2)c1,,"inconclusive: 17.8 µM [rising, single point]"
Cc1c(NC(=O)/C(C#N)=C/c2c(N3CCCCC3)nc3ccccn3c2=O)c(=O)n(-c2ccccc2)n1C,,"inconclusive: 2.82 µM [falling, partial curve, poor fit]"
C/C(=N\NC(=S)Nc1c(C)cccc1C)c1ccc(OC(F)F)cc1,,"inconclusive: 20.6 µM [falling, single point]"
O=C(Cc1cccs1)N/N=C/C=C\c1ccco1,,"inconclusive: 32.6 µM [falling, single point]"
CCOC(=O)C1=C(C)N(c2ccccc2)C(=O)C1,inconclusive: 20.8%,
CCOC(=O)c1ccc(Nc2c(-c3ccc(O)cc3)nc3nc[nH]n23)cc1,inactive: -10.1%,
CC(C)(C)c1ccc(NC(=O)COC(=O)C2(C)CC2(Cl)Cl)cc1 (centres undefined),,"inconclusive: 35.5 µM [falling, single point]"
O=C(NCc1ccccc1Cl)C(=O)NCC(c1ccco1)N1CCOCC1 (centres undefined),,"inconclusive: 17.8 µM [falling, single point]"
CC(=O)c1nnn(-c2nc(N3CCCC3)nc(N(c3ccccc3)c3ccccc3)n2)c1C,,"inconclusive: 4.61 µM [rising, partial curve, poor fit]"
CCCc1cc(=O)[nH]c(SCc2ccc(Cl)cc2)n1,inconclusive: -14.4%,
O=C(CCCN1C(=O)/C(=C/c2cccs2)SC1=S)Nc1cccc(O)c1,,"inconclusive: 35.5 µM [falling, single point]"
N#Cc1cccc(NC(=O)N2CCC(c3nc4c(nnn4Cc4cccc(Cl)c4)c(=O)[nH]3)CC2)c1,,"inconclusive: 35.5 µM [falling, single point]"

# From PubChem BioAssay AID493014 (National Center for Advancing Translational Sciences (NCATS), 2011)
